Source: PubChem BioAssay AID2685 (National Center for Advancing Translational Sciences (NCATS), 2010)
The other results are listed elsewhere or left out. Further columns of the screen follow, without active or inactive calls. Most of these compounds were active or inconclusive in the main read-out, so they are no random draw. Words in brackets tell the shape of the fitted curve; partial curves, single points and poor fits give uncertain potencies.

Assay: qHTS Assay for Lipid Storage Modulators in Drosophila S3 Cells;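 on cell number change: cells counted by Cell Tracker Red CMTPX staining in the red channel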
Details: BODIPY lipid droplet fluorescence, 18-24 h; for cell number change: measured here: cell count max response, cells fed with added oleic acid
Method in brief: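 Drosophila S3 cells loaded with oleic acid (400 uM, as added) and compounds at several concentrations; lipid droplets imaged by 488-nm laser-scanning cytometry, 500–530 nm intensity and object ratio to cell channel. Percent activity normalized to 20 uM Triacsin C.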

[1] = measured here: cell number channel AC50, cells fed with added oleic acid
[2] = measured here: lipid fluorescence (Fed channel) AC50, cells fed with added oleic acid

SMILES: Cc1ccc(NC(=O)Cn2c(=O)oc3cc(S(=O)(=O)N4CCC(C)CC4)ccc32)cc1C
- cell number change: 31.2%
- AC50 [1]: 20.6 µM [rising, single point]

SMILES: C[C@@H](NC(=O)[C@@H]1Cc2ccccc2CN1)C(=O)Nc1ccc2c(c1)OCCO2
- cell number change: -65.2%
- AC50 [2]: 0.58 µM [rising, single point]

SMILES: Cc1ccc(NC(=O)NC(=O)CN2CCC(C(N)=O)CC2)c(C)c1
- cell number change: -30.7%
- AC50 [1]: 0.164 µM [falling, full curve, poor fit]

SMILES: NNC(=O)CCc1nc2ccccc2[nH]1
- AC50 [2]: 6.51 µM [rising, partial curve, poor fit]

SMILES: Cc1ccc(C(=O)Oc2cccnc2)cc1[N+](=O)[O-]
- cell number change: 24.7%
- AC50 [2]: 20.6 µM [falling, partial curve, poor fit]

SMILES: O=C(CSc1ncn[nH]1)N1N=C(c2ccc(Cl)cc2)CC1c1ccco1 (configuration not stated)
- cell number change: 18.7%

SMILES: C=CCN(Cc1nc(-c2ccccc2)no1)C(=O)c1ccco1
- cell number change: 7.83%

SMILES: C[C@H](NC(=O)c1ccc(Cl)cc1)C(=O)NCCc1ccc(S(N)(=O)=O)cc1
- cell number change: 26.8%
- AC50 [2]: 32.6 µM [rising, partial curve, poor fit]

SMILES: CCOC(=O)CN1C(=O)NC(C)(c2ccc(OC(F)F)cc2)C1=O (configuration not stated)
- cell number change: -25.4%
- AC50 [2]: 6.51 µM [falling, single point]

SMILES: Cc1ccc(NS(=O)(=O)c2c(C)[nH]c(=O)[nH]c2=O)c(C)c1
- cell number change: -7.8%
- AC50 [2]: 6.51 µM [falling, single point]

SMILES: COc1ccc(C(=O)NC(=S)NNC(=O)c2cnccn2)cc1OC
- cell number change: -24.5%
- AC50 [2]: 1.64 µM [falling, partial curve, poor fit]

SMILES: Cc1ccc(C2=Nc3ccccc3SC(c3cccc([N+](=O)[O-])c3)C2)cc1 (configuration not stated)
- cell number change: -35.5%
- AC50 [1]: 29.1 µM [falling, single point]
- AC50 [2]: 2.06 µM [rising, partial curve]

SMILES: O=C(OCC(=O)N1CCN(c2ccccc2)CC1)c1cnc(Cl)c(Cl)c1
- AC50 [1]: 0.206 µM [rising, full curve]

SMILES: O=C(Cc1ccccc1)Nn1c(O)c(/C=C2\C=Nc3ccccc32)sc1=S
- cell number change: -60.2%
- AC50 [1]: 20.6 µM [falling, partial curve]
- AC50 [2]: 18.4 µM [falling, single point]

SMILES: CN(C(=O)c1ccc(NC(=O)Cc2cccc(NC(=O)C3CCCN(C(=O)C4CCCCC4)C3)c2)cc1)C1CCCC1 (configuration not stated)
- cell number change: -5.1%

SMILES: CC12CN3CC(C)(CN(C1)C3c1ccc(Br)cc1O)C2 (configuration not stated)
- cell number change: 12.8%

SMILES: CC(C)(C)c1cc(C(=O)NNc2cc(C(F)(F)F)ccc2Cl)n(Cc2ccccc2)n1
- AC50 [2]: 16.4 µM [falling, single point]

SMILES: Cc1nc(SCC(=O)NC(=O)NCc2ccccc2)nc(C)c1C
- cell number change: 47.3%
- AC50 [1]: 2.59 µM [rising, full curve]
- AC50 [2]: 5.8 µM [rising, partial curve]

SMILES: CCOC(=O)c1c(C)n(C)c2cc(Br)c(C)cc12
- cell number change: 48.4%
- AC50 [1]: 18.4 µM [rising, single point]
- AC50 [2]: 6.51 µM [rising, single point]

SMILES: CC(C)(C)C(=O)C(Cl)C(=O)Nc1ccccc1 (configuration not stated)
- cell number change: -14.4%
- AC50 [2]: 32.6 µM [falling, single point]

SMILES: COCCCn1c(=O)c2ccccc2n(Cc2ccc(C)cc2)c1=O
- cell number change: -9.11%
- AC50 [2]: 0.206 µM [rising, full curve, poor fit]

SMILES: N=c1sccn1CC(=O)Nc1cccc(S(=O)(=O)N2CCCCCC2)c1
- cell number change: 23.1%
- AC50 [1]: 0.92 µM [falling, full curve]
- AC50 [2]: 1.84 µM [falling, partial curve]

SMILES: CCCCC#Cc1ccc2c(c1)COc1c3ccccc3nn1-2
- cell number change: 7.81%
- AC50 [2]: 6.51 µM [rising, partial curve]

SMILES: O=C(Nc1c(F)cc(F)cc1Br)c1cc(-c2ccco2)on1
- cell number change: 4.31%

SMILES: Cc1ccc(N(C(=O)C2CCCO2)C2C=CS(=O)(=O)C2)cc1Cl (configuration not stated)
- cell number change: -10.6%
- AC50 [2]: 1.03 µM [falling, full curve]

SMILES: CCNC(=S)NS(=O)(=O)c1ccc(F)cc1
- cell number change: 2.02%

SMILES: COc1ccc(C2(O)CCN(C(=O)c3ccc4c(c3)OCO4)CC2)cc1
- cell number change: 30.5%
- AC50 [1]: 9.2 µM [rising, partial curve]

SMILES: C/C(=N\NC1=N[C@H]2CS(=O)(=O)C[C@H]2S1)c1ccccc1
- cell number change: 12.9%
- AC50 [2]: 1.03 µM [falling, full curve, poor fit]

SMILES: COc1cc(NC(=O)c2ccccc2)c(OC)cc1NC(=O)CN1C(=O)NC2(CCCCC2C)C1=O (configuration not stated)
- cell number change: 1.1%

SMILES: O=C(CN(C(=O)c1csnn1)c1ccccc1Cl)NC1CCCCC1
- cell number change: 13.7%

SMILES: CC(/C=N/NC(=O)c1ccc(Cn2cc([N+](=O)[O-])cn2)o1)=C\c1ccccc1
- cell number change: 1.74%

SMILES: CC(=O)c1ccc(Sc2ccccc2N)c([N+](=O)[O-])c1
- cell number change: 19.7%
- AC50 [2]: 1.64 µM [rising, full curve, poor fit]

SMILES: CC(C)n1cc(CN2CCC(C(=O)Nc3ccc(Oc4ccccc4F)cc3)CC2)cn1
- cell number change: -20.2%
- AC50 [2]: 0.58 µM [rising, single point]

SMILES: CCCC(=O)c1cc(-c2nc3ccccc3n2C)n(C)c1
- cell number change: 141%
- AC50 [2]: 14.6 µM [rising, partial curve]

SMILES: O=C(NC(Cc1ccc2c(c1)OCO2)C(=O)N1CCCC1C(=O)O)c1ccccc1 (configuration not stated)
- cell number change: -3.14%
- AC50 [2]: 0.116 µM [falling, full curve, poor fit]

SMILES: COc1cc(NC(=O)c2cc3c(Cl)nc4ccccc4c3s2)cc(OC)c1OC
- cell number change: -31.8%
- AC50 [1]: 6.51 µM [rising, partial curve]
- AC50 [2]: 6.51 µM [rising, partial curve]

SMILES: CCN(CC)C(=O)Cn1c(C)c(/C=C/c2cc[n+](C)cc2)c2ccccc21
- cell number change: 30.1%

SMILES: Cc1cnc(C(=O)OCC(=O)c2cc(C)n(C)c2C)cn1
- cell number change: -9.47%
- AC50 [1]: 4.11 µM [rising, partial curve, poor fit]
- AC50 [2]: 6.51 µM [rising, partial curve, poor fit]

SMILES: Cc1ccc(-n2nc3ccc(NC(=O)c4ccc5c(c4)OCO5)cc3n2)cc1
- cell number change: 21.3%

SMILES: C1=C(C(c2nnnn2C2CCCCC2)N2CCCCC2)COc2ccccc21 (configuration not stated)
- cell number change: -1.18%

SMILES: Cc1nc(C(=O)NNC(=O)Nc2ccccc2)cs1
- cell number change: 22.1%
- AC50 [2]: 29.1 µM [rising, single point]

SMILES: Cc1ccc(C)c(S(=O)(=O)N2CCN(C(=O)c3ccccc3Cc3ccccc3)CC2)c1
- cell number change: 33.7%
- AC50 [1]: 29.1 µM [rising, single point]

SMILES: CC(=O)NC(=S)NNC(=O)CCc1ccccc1
- cell number change: -42.8%
- AC50 [1]: 6.51 µM [falling, single point]

SMILES: CN1CCN(C(=O)c2ccc(COc3ccc(C(C)(C)C)cc3)o2)CC1
- cell number change: -3.11%
- AC50 [2]: 6.51 µM [rising, single point]

SMILES: Cc1cc(=O)[nH]c(-c2cccs2)n1
- cell number change: 20.7%
- AC50 [1]: 0.0259 µM [rising, full curve, poor fit]
- AC50 [2]: 0.0058 µM [rising, full curve, poor fit]

SMILES: COc1ccc(Cc2nnc(SCC(=O)c3ccc4c(c3)NC(=O)CO4)o2)cc1
- cell number change: 18.1%

SMILES: Cc1cc(C)cc(NC(=O)C2CCCN(S(=O)(=O)c3c(C)noc3C)C2)c1 (configuration not stated)
- cell number change: -16.2%
- AC50 [2]: 23.1 µM [falling, single point]

SMILES: CC(NC(=O)[C@H](NC(=O)[C@@H]1Cc2ccccc2CN1)c1ccccc1)c1ccccc1 (some centres not stated)
- AC50 [2]: 20.6 µM [rising, single point]

SMILES: O=C(N=Nc1c(O)[nH]c2ccccc12)c1cccc(S(=O)(=O)N2CCCCC2)c1
- cell number change: 76.6%
- AC50 [1]: 0.58 µM [rising, full curve, poor fit]
- AC50 [2]: 10.3 µM [rising, partial curve, poor fit]

SMILES: CCOc1ccc(-c2ccc(NS(=O)(=O)c3cc([N+](=O)[O-])c(C)c([N+](=O)[O-])c3)cc2)nn1
- AC50 [2]: 6.51 µM [falling, single point]

SMILES: O=C(Nc1nc2ccccc2n1CCN1CCOCC1)c1cn(-c2ccccc2)nc1-c1ccccc1
- cell number change: -15.5%
- AC50 [2]: 1.03 µM [rising, full curve, poor fit]

SMILES: CCN(CC(=O)NCCCN1CCOCC1)S(=O)(=O)c1ccc(Cl)cc1
- AC50 [2]: 29.1 µM [rising, single point]

SMILES: Cc1ccc(S(=O)(=O)Nc2cc(-c3ccccc3)nn2C)cc1
- cell number change: -3.91%
- AC50 [2]: 0.259 µM [falling, full curve, poor fit]

SMILES: Cn1nnc(NC(=O)C(c2ccccc2)c2ccccc2)n1
- cell number change: 6.45%
- AC50 [2]: 0.0291 µM [rising, full curve, poor fit]

SMILES: Cc1cccc(N2CCN(c3nc4ccc(Cl)cc4n4cnnc34)CC2)c1C
- cell number change: -45.1%
- AC50 [1]: 20.6 µM [falling, single point]
- AC50 [2]: 29.1 µM [falling, single point]

SMILES: CC(CC(=O)N1CCN(S(=O)(=O)c2ccccc2)CC1)n1cncn1 (configuration not stated)
- cell number change: 17.4%
- AC50 [2]: 29.1 µM [rising, partial curve, poor fit]

SMILES: CN(C)CCCN(C(=O)c1cc(-c2cccs2)nc2ccccc12)c1nc2c(F)cccc2s1
- cell number change: 46%
- AC50 [1]: 11.6 µM [rising, partial curve, poor fit]
- AC50 [2]: 9.2 µM [rising, partial curve, poor fit]

SMILES: COc1cc([N+](=O)[O-])ccc1Nc1nc(C)cc(C)n1
- cell number change: 99.1%
- AC50 [1]: 6.51 µM [falling, single point]

SMILES: CCN(CC)C(=O)C1CCCN(Cc2ccccc2F)C1 (configuration not stated)
- cell number change: 4.81%
- AC50 [2]: 5.8 µM [falling, full curve]

SMILES: COc1ccc(-c2nc(C#N)c(NCc3ccccc3Cl)o2)cc1OC
- cell number change: -46.5%
- AC50 [1]: 29.1 µM [falling, single point]
